Reference: patent US20160304584A1, “MAFB MUTANTS AND USES THEREOF” (INSERM (INSTITUT NATIONAL DE LA SANTÉ ET DE LA …, published 2016)
These are yes or no findings as the source states them, for the method shown. Some results given as binding are weak or reduced against the parent protein; the word gives no strength.

By UniProt entry, the sequences of proteins in these tests, tags left out. Where a name states a change or a piece, a line headed by the entry shows the natural chain unless it says otherwise. Residues count along the entry.
UniProt P01101, residues 138-200: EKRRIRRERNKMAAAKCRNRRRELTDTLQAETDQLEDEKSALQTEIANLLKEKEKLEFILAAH
UniProt P54841: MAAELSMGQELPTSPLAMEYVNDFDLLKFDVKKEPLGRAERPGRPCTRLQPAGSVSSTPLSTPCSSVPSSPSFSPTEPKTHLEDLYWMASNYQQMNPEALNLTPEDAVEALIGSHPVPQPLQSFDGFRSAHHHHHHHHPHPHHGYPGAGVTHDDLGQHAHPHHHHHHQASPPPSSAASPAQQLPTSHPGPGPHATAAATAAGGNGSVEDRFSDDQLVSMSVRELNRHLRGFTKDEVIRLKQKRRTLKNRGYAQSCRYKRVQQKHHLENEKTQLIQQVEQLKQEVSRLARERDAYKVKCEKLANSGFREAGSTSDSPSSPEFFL

What was measured:
[1] = target: c-Fos fragment from Mus musculus (residues 138-200), encompassing the BR and Zip segment (Mus musculus) (UniProt P01101); assay: EMSA on T-MARE(beta)
[2] = target: MafB (E269R) mutant, recombinant protein (Mus musculus) (UniProt P54841); assay: EMSA on T-MARE(gamma)
[3] = target: c-Fos fragment from Mus musculus (residues 138-200), encompassing the BR and Zip segment (Mus musculus) (UniProt P01101); assay: EMSA with c-Fos titration
[4] = target: MafB (E269R) mutant, recombinant protein (Mus musculus) (UniProt P54841); assay: EMSA, equimolar MafB (E269R) and c-Fos
[5] = target: MafB (V277N) mutant, recombinant protein (Mus musculus) (UniProt P54841); assay: EMSA on a T-MARE probe

Row | Substance | binding [1] | binding [2] | binding [3] | binding [4] | binding [5]
1 | MafB (E269R) mutant, recombinant protein (from UniProt P54841 211-305) | binds | binds | binds | binds | –
2 | MafB (V277N) mutant, recombinant protein (from UniProt P54841 211-305) | – | – | – | – | binds
